The campaign covered roughly 53,000 sequences. About 3,700 (7%) were called active.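 How the source made its calls: active means gene knockdowns whose robust z-score for IL-1 alpha signal is at least 2 or at most -2, so actives lie on both sides; inactive means the rest.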 The list shows a part of the results.

Consider 107 sequences from PubChem BioAssay AID1508600 (Functional Genomics Laboratory (NCATS/FGL), 2020).

The nature of the assay: Components of the Cytosolic LPS Sensing Pathway: Gene Identification via Genome-wide siRNA Screen.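 Further: robust z of the log signal after scaling to non-targeting control siRNA wells of the plate.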 The conditions noted are these: RAW264.7 macrophages, IL-1a HTRF, actives lie on both sides, screened at 100 nM (by protocol), cells primed 5 h with Pam3CSK4 first. In a few lines: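 Cells (RAW264.7, 1×10^4 per well) were transfected with siRNA at 100 nM and cultured 48h at 37 degrees C. Pam3CSK4 was added for 5 hours; LipidA transfection followed for 24 hour. IL-1a was then measured by HTRF.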
On the technique in general: TR-FRET usually uses a lanthanide donor and a delayed reading to cut background.
Take GGAAUAUUAUGGGUAUCGATT against Cacna1s: the z-score was inactive: 0.952.

For the sequence GGUUGAUAGUUGUGAAAAGTT against Clcc1, the z-score is inactive: 0.327.

For the sequence GGAUGCUAUAAAGAAUGCCTT against Prpf39, the z-score is inactive: -1.19.

For CCAUUAUGAUUUAUGCUCCTT against Kcnmb4, the z-score was inactive: -0.0937.

With GGAGUCACUCACAUUGUGGTT against Poll, the z-score is inactive: -0.198.

Consider GGUAACCUAGUGUAAGUUUTT against Atg2b, for which the z-score is inactive: -0.0782.

Take “GGGCAUUUUGAUGCUUACGTT against 1700034I23Rik”: the z-score was inactive: -1.56.

Take GGACAUUCCUGUUGAUAAUTT against Kcnj8: the z-score was inactive: -0.171.

GGAAGUUGACUUGUUCUCUTT against Ccndbp1: the z-score is inactive: 0.0255.

For the sequence GGCAUUUGACACAACUGUCTT against AI182371, the z-score was inactive: -1.64.

As for GGUGGAAGAGAAACUCAGGTT against Mill2, the z-score was inactive: -1.05.

Take GCCACUCUUUAAGAAUCUATT against Abcf1: the z-score is inactive: -0.552.

On to CCAGACCUAUACUAUGAAUTT against Trappc12, for which the z-score was inactive: -0.655.

As for GGACCGUAUCCCAAAAGAUTT against Klf1, the z-score is inactive: -0.968.

For CGUUUGAUGAGACCAUGUATT against Vwf, the z-score was inactive: -0.459.

Turning to GCAAGGAAGGCUUUCAAGATT against Gsta1, the z-score was inactive: -0.00594.

As for GAUGACUAGCUCUACUUUATT against Olfr738, the z-score is inactive: -0.0882.

As to GGAGAACCUGCUGAAGGACTT against Itgb3, the z-score was inactive: -1.04.

Take GGUUGUCUACUUCACCGCUTT against Slc6a6: the z-score is inactive: 0.0139.

For the sequence CGAGGUACUCCAGAAUAGATT against Mstn, the z-score is inactive: 1.28.

Take CCUAAAGGUUCCCAACAGUTT against Serpinb3d: the z-score is inactive: -0.517.

Regarding GCCCUUUGGAAGAAUACUCTT against Golt1b, the z-score was inactive: -1.12.

In the case of GGACAUGGAUUUGAUAGACTT against Acaa2, the z-score was inactive: -1.4.

Regarding GCUCUACUCCUUACCUAGUTT against Nkain1, the z-score is inactive: 0.364.

Take GGAAAAAAGGUCUGUAAAUTT against Ubl4b: the z-score is inactive: 0.223.

Turning to GCAAAUUUUAUAUGCGACUTT against Glipr1, the z-score was inactive: -0.561.

Take GCUAAGCGAAGAGUUUAACTT against Dlgap3: the z-score was inactive: 0.691.

In the case of GGCUGUGAAUUGUUAACUATT against Stard4, the z-score is inactive: -0.678.

Take GCGAAGAUCACCAUGUCUCTT against Oosp1: the z-score was inactive: -0.687.

As for GCGUUUGGGCCGGAAGAAATT against Smo, the z-score was inactive: 0.57.

As to GGUGGCAGUGAAAGUCAUUTT against Snrk, the z-score was inactive: -0.816.

Consider CCUUGGUCACCGAAUUUAUTT against Olfr152, for which the z-score was inactive: -1.26.

For the sequence GCCUGGCCUUUCCAAUAUCTT against Gm16367, the z-score was inactive: -1.24.

As to CCGCAUGAAGAGCAACCACTT against Hgs, the z-score is inactive: -0.637.

Turning to CCACCUUUAUUCAAAAUCGTT against Mmp20, the z-score was inactive: -0.451.

In the case of GGUGGUGUCAACCUUAAAATT against Nrsn1, the z-score is inactive: 0.253.

With GGAGACAUGGCAUCCAAAUTT against Cnr1, the z-score is active: 3.14.

As for GCGAGUUGUUUCCAUAGUUTT against Gpr22, the z-score is inactive: -0.388.

On to GGCCAAAUUAGAAAAAGUCTT against Polr3e, for which the z-score is inactive: -0.00692.

In the case of CCAUCUCUUACUAUCCAUGTT against Cmbl, the z-score was inactive: -1.03.

GGUGCUGUGGUUAAAAUGATT against Pgm5: the z-score was inactive: 0.0668.

For GCUGCUCAGCCAUACCUUGTT against Nlrp14, the z-score is inactive: 0.148.

For the sequence GGGUCAUGUACAAUCUCUUTT against Bbc3, the z-score is inactive: 0.22.

In the case of GGGCAACUCUGCAUACUGUTT against Nell1, the z-score was inactive: 0.305.

Take GGCGAUGAUCCGAAAACAGTT against Elmod1: the z-score is inactive: 0.218.

As to GGCCGAGUACAAACGUGGATT against Atg9a, the z-score is active: 2.77.

On to GGUCUCAGAAGUGGUUUUCTT against Mettl4, for which the z-score is inactive: 0.725.

For the sequence CGAAGGGCUUUAGCUUGGATT against Capn11, the z-score is inactive: 0.647.

As to GUCCUGGAUAUGCUCCUGUTT against Olfr544, the z-score is inactive: -0.435.

As for GGCUUCAUGCUACACAGAUTT against Soat2, the z-score is inactive: 1.66.

As to GGUAUUUGAUUCCAAAUGCTT against Tbc1d23, the z-score is inactive: 0.546.

Take GCCAUACCCUGAAUUACCATT against Ndnf: the z-score is active: -2.01.

As to GGAUUACAGGAAGUUCUGGTT against Stap2, the z-score is inactive: 1.5.

As for GGAUGCUCUCUUUACUGACTT against Inpp5j, the z-score was inactive: 0.992.

For GGUGAAGAAGAUGUGGACUTT against Pth2r, the z-score was inactive: -0.101.

Take GGUUUACUGGUAAUUUUCATT against Fnbp1l: the z-score was inactive: 0.948.

As for CGUAAGAUGAAAGCUAUUGTT against Mtx2, the z-score was inactive: -0.567.

For the sequence GGUAUCUACACCAAACUUATT against Klk1b5, the z-score is inactive: 0.685.

On to GGAAGAACCUUGUUUGUAUTT against Sectm1b, for which the z-score is inactive: -1.78.

In the case of GGGUGACAGGUUGAUCUCATT against Tcn2, the z-score was active: -2.11.

As to GGCUUUCUUUGCCAUGACCTT against Copg1, the z-score is active: -2.93.

With GCACAAGAGGUAUCCUUGCTT against Gm5111, the z-score is inactive: 0.000682.

As to CGAGCAGAGUUUUUGAAUATT against Cald1, the z-score was inactive: -0.923.

Take GGAAAUUUUCAAGCUCAAGTT against Gsdmd: the z-score was active: -2.44.

Consider GUACUGAUACUAGGCUCCUTT against Olfr1387, for which the z-score is inactive: 0.492.

Consider GGAGAUUUACUGCUCGCUGTT against Pik3r6, for which the z-score was inactive: 0.0343.

For CGCUAUGAAACCUCACUAATT against E2f1, the z-score is inactive: -0.598.

Regarding GAAAAUCUAAGGAUCCUUGTT against Vmn1r179, the z-score is inactive: 0.402.

On to CGUGAGGUUAUGAUGUAUUTT against Gm5444, for which the z-score was inactive: -1.3.

Regarding CCAUUAUGAGUAUAGUUGCTT against Ufm1, the z-score is inactive: -1.34.

In the case of GGACUCCACUCCAAAUACATT against Tnfsf8, the z-score is inactive: 0.114.

GGGUUUUUACAUUCAGAAGTT against Trib2: the z-score is inactive: 0.121.

As for GGUAAUGAAGGAACUGGAUTT against S100a1, the z-score is inactive: 0.0105.

As for GCUCAGGUAUCUUCGAUUATT against Zfp975, the z-score is inactive: 0.842.

For the sequence GGCUUACAAUGUGAUUUACTT against Cd7, the z-score was inactive: 1.92.

For “GGGACCACUCCUUCAUCACTT against A630001G21Rik”, the z-score is inactive: 0.0374.

Take GCCUCACUUUGCCAUGCAUTT against Pou4f1: the z-score was inactive: -1.78.

On to GGGAUGAAAUCAAUUGUACTT against Lrp12, for which the z-score is inactive: -0.226.

In the case of GGGCCCAGUUGAUCAAAGATT against Ttc29, the z-score is inactive: -0.158.

GGACAACUCGAUUUUAUCCTT against Nudt15: the z-score was inactive: 1.03.

GGAAUCAGAUACAAAGGAGTT against Sil1: the z-score is inactive: 0.265.

On to GGCCAGAGACAGUUAUCUUTT against Sptssb, for which the z-score was active: 2.43.

As to GUGGCCAAAACAACAUGCATT against Olfr1348, the z-score was inactive: -0.291.

As for GGAAGUCGAGGUAUACACUTT against Pax2, the z-score is inactive: 0.0774.

For GGACAUUGACCUGUUCGGCTT against Eef1d, the z-score was inactive: 0.952.

Turning to GGAUGUCAGAUUUGUCAGCTT against Trpm7, the z-score is inactive: -0.439.

In the case of CCUAAACCCUCAGUUCUCUTT against Slfnl1, the z-score was inactive: -1.22.

For the sequence GGAGAUAAAGUCUUAUCACTT against Misp, the z-score is active: -2.05.

For GGGAGACUCCUUUUGCACUTT against Wnt1, the z-score is inactive: 0.574.

Take GCCCUGAGAAAAAGCUCAUTT against Vmn1r212: the z-score was inactive: -1.49.

GGUGCUGAGUUGGUCUUAUTT against Tbc1d25: the z-score is inactive: -0.264.

Consider GCAGUGAUCCAUGAGCCUATT against Eif5a, for which the z-score was active: 4.64.

As to CCUUGUACACGGAUUGAAUTT against Itga6, the z-score is inactive: -0.192.

Regarding GCAAUUAGUCCCUAUUUACTT against Vps41, the z-score is inactive: 0.979.

With CCUUCUACCUCACCUUACGTT against Tmem186, the z-score is inactive: -1.23.

GCUGUUAGCCUUAAAGUCATT against Hibch: the z-score is inactive: 0.144.

For GCAGUAACCGUGACCAGAUTT against Slc35a5, the z-score was inactive: -0.32.

Turning to CGAAUUUACUUCAGACUUCTT against Crybg1, the z-score was inactive: 0.168.

As to GCAAUGCAGUACUAAACUCTT against Coq8a, the z-score is inactive: 0.654.

As for GGAGAUUUAUUAAACUGGATT against Ell2, the z-score is inactive: 0.982.

Regarding GGAUAGAAUGGACUUUGAATT against Ulk2, the z-score was inactive: 0.143.

GCUGAGGGUUGAUUAGUGGTT against H2-Bl: the z-score was inactive: 0.608.

For the sequence GGAGAGUCCUUCUGUGACUTT against Spsb3, the z-score was inactive: -1.38.

GCCCAAUGUCUCAGAUUAUTT against Dgkg: the z-score is inactive: 0.0684.

On to GGACUGGUAUUCAAAGAGGTT against Krt9, for which the z-score is inactive: 0.83.

On to GGACCUCAUCAAGCUAUGUTT against Rbms3, for which the z-score was inactive: -1.73.

As to GCUACAGCUAUAUCGCUAUTT against Cnot8, the z-score is inactive: 0.625.
